Source: the supplement of paper PMC6411743
± gives the standard deviation of the averaged measurements. The entries are a selection whose mix differs from that of the whole data set. Most entries show no effect beyond the scatter of the controls.

Protein sequences, listed by entry. Tags and fused reporters are not part of them. Lines headed by an entry give the natural chain unless they say otherwise; changes in a name come on top.
UniProt O14879: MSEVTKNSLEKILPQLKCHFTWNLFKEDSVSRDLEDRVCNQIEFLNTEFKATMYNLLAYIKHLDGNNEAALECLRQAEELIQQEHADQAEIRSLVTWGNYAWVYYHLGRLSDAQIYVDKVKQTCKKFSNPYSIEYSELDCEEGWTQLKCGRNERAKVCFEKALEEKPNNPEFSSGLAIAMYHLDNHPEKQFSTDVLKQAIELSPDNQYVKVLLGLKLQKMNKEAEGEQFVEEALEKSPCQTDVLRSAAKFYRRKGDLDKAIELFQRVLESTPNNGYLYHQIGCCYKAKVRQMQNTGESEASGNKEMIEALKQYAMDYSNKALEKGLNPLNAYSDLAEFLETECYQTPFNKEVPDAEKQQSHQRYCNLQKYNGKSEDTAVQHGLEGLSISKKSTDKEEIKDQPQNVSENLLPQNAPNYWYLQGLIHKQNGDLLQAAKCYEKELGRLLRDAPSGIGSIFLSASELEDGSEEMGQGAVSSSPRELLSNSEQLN
UniProt O15371, whole entry: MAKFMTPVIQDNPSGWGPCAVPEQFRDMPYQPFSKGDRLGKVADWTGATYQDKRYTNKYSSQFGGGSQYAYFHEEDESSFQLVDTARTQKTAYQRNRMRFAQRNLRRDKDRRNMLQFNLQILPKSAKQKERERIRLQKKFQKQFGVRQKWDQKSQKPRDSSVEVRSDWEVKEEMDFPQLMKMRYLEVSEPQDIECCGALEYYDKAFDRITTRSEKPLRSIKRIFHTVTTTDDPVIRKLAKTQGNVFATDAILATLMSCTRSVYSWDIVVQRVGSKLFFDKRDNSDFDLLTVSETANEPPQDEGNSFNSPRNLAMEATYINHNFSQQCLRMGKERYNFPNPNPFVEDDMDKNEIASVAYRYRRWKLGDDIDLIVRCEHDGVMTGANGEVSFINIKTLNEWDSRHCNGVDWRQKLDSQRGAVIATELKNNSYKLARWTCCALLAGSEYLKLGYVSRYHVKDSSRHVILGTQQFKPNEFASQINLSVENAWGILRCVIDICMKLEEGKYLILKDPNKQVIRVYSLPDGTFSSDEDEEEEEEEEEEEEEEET
UniProt O43813, whole entry: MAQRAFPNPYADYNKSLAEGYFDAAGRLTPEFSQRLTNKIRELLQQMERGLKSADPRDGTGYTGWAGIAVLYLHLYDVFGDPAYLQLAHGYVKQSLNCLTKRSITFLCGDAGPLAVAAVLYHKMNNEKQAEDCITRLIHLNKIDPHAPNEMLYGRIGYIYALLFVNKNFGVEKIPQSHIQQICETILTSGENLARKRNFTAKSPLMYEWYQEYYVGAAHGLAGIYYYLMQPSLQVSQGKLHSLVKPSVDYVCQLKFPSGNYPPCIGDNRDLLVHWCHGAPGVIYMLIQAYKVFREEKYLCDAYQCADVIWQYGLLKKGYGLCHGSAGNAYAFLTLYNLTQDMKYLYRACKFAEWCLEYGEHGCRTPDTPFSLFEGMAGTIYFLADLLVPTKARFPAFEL
UniProt O15228: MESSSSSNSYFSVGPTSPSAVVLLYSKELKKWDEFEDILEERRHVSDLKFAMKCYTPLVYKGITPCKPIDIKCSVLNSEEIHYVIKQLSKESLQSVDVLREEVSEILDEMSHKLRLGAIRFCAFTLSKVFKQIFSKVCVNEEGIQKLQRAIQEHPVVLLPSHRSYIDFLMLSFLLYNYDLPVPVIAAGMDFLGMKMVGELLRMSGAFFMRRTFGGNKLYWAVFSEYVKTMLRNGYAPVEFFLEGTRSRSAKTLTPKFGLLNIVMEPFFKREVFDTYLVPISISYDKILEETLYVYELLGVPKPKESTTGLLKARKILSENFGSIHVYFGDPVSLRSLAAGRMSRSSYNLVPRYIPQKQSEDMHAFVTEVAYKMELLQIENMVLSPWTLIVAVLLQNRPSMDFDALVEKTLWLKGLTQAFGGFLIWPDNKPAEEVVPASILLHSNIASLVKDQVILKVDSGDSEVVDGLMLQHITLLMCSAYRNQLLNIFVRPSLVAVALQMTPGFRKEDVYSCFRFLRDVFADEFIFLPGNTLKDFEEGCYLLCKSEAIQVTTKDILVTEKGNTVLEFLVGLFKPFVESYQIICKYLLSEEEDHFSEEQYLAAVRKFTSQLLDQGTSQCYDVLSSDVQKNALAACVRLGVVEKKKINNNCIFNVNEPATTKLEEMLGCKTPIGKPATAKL
UniProt O00231, whole entry: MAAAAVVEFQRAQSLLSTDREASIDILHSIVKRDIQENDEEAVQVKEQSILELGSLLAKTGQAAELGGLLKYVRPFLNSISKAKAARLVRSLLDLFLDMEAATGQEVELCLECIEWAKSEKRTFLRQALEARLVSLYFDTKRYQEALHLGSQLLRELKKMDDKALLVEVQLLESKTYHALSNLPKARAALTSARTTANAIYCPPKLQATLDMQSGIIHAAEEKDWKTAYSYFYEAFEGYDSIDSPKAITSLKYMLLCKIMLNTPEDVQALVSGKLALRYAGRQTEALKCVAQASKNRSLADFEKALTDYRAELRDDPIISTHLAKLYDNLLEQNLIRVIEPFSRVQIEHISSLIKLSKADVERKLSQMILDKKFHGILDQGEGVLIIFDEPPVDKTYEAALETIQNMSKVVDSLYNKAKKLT
UniProt O60307: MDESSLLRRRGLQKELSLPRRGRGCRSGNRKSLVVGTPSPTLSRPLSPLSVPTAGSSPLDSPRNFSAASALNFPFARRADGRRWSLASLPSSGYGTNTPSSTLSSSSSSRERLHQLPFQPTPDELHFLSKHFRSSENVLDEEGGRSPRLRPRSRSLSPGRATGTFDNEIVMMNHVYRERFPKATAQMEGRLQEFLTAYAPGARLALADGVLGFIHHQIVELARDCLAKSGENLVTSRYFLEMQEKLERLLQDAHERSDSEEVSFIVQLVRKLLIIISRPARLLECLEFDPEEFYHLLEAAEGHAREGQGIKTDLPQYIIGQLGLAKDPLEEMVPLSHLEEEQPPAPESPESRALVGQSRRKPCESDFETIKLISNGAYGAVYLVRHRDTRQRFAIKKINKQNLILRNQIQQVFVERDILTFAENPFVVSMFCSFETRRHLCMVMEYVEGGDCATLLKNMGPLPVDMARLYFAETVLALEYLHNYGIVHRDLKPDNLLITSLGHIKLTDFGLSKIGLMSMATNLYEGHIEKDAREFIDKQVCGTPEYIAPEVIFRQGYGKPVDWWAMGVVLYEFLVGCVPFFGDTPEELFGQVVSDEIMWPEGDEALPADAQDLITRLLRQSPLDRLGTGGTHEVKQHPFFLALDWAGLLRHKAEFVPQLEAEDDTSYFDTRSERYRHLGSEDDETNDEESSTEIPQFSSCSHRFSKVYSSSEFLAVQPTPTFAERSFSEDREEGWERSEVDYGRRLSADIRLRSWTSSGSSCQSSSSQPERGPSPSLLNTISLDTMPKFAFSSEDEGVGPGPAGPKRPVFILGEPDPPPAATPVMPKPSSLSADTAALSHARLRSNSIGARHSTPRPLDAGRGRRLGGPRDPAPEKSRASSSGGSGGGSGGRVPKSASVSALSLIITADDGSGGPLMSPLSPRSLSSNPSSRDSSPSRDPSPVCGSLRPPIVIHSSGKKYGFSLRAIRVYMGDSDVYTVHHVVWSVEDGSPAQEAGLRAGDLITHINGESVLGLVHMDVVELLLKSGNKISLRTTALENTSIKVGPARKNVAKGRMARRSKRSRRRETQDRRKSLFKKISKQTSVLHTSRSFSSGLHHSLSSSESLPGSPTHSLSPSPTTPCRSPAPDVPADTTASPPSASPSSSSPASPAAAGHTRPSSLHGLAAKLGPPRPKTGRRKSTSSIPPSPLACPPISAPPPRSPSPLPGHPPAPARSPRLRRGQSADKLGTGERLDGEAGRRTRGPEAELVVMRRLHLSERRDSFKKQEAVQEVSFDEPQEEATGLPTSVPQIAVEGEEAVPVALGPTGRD
UniProt O15118: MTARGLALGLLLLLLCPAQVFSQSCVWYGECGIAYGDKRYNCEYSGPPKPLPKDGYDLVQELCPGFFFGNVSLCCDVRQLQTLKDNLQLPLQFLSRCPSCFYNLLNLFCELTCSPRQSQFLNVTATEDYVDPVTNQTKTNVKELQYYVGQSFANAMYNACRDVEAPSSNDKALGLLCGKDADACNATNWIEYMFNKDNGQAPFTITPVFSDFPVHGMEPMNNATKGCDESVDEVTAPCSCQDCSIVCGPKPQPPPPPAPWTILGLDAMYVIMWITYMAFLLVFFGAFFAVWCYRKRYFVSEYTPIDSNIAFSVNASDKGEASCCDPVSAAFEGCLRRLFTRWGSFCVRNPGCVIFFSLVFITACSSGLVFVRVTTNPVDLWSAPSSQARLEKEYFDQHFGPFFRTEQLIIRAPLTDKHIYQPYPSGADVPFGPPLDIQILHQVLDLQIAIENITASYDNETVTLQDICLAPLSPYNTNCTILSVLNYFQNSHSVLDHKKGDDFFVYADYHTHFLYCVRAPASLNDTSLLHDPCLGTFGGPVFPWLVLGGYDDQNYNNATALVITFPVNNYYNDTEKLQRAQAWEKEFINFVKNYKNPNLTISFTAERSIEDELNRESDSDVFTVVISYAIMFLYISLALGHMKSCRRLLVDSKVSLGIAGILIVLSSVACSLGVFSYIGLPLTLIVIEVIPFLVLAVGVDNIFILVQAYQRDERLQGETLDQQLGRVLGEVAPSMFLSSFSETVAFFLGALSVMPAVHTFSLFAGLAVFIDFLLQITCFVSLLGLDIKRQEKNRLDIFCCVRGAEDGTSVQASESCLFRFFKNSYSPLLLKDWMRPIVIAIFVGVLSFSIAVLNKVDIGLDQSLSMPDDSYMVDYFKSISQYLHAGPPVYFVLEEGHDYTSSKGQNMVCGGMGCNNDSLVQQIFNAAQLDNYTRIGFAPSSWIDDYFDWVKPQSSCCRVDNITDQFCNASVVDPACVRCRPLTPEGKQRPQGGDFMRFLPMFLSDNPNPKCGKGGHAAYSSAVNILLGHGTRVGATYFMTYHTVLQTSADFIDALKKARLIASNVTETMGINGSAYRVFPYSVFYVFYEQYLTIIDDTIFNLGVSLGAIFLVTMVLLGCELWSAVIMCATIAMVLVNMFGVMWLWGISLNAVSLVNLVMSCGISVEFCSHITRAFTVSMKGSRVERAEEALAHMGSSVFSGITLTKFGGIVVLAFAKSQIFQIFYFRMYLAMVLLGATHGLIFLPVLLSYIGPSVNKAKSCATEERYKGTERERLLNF
UniProt O43447: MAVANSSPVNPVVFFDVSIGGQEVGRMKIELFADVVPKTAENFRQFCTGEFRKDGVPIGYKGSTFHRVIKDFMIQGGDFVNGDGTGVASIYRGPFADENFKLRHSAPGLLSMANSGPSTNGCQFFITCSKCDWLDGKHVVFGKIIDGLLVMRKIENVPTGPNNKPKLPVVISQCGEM
UniProt O00400: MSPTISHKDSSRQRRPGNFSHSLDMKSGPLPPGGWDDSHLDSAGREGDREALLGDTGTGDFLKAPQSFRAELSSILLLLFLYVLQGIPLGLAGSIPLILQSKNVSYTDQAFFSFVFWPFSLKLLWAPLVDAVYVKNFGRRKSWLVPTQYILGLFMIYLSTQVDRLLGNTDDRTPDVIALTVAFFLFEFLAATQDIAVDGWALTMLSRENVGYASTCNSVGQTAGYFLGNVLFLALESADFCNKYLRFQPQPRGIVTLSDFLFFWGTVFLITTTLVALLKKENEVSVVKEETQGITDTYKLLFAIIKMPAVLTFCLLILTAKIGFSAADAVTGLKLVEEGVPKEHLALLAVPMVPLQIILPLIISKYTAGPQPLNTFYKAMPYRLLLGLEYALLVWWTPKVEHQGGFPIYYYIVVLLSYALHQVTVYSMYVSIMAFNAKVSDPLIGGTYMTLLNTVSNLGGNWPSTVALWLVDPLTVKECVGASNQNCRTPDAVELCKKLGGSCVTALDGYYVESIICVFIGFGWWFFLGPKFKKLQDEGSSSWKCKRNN
UniProt O00522: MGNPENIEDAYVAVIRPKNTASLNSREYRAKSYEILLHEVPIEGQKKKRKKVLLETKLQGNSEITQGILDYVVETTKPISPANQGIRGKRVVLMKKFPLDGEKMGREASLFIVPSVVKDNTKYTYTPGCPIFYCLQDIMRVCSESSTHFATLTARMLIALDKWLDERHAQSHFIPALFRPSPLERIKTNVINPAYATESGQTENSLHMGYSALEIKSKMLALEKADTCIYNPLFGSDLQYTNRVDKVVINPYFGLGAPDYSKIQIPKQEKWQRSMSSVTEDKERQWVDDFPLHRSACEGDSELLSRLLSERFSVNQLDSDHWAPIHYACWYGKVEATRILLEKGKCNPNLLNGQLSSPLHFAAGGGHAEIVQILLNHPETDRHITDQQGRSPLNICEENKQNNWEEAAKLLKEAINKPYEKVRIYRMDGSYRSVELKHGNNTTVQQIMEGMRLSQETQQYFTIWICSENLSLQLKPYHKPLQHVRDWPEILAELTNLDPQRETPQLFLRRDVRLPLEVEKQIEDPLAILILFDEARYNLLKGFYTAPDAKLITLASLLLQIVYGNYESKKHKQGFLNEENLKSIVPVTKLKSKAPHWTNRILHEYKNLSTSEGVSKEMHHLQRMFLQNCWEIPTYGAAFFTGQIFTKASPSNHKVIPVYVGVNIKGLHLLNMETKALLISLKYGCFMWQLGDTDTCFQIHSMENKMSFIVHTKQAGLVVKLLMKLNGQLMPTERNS

Compound: Nc1ncnc2c1ncn2[C@@H]1O[C@H](COP(=O)(O)OP(=O)(O)OP(=O)(O)O)[C@@H](O)[C@H]1O [adenosine triphosphate]
Assay: NP40-soluble protein abundance relative to vehicle (solubility fold change) (ratio); higher = more soluble protein in presence of ATP
Summary of the method: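 Values are fold changes against the detergent-processed vehicle, based on vsn-normalised intensities. Jurkat crude lysate was treated at eight concentrations from 0.1 to 10 mM (10 min at room temperature, then 3 min at 37 °C), solubilised with 0.8% NP40 and benzonase, ultracentrifuged and analysed by TMT-labelled LC-MS/MS over three independent experiments.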

Target	NP40-soluble protein abundance (concentration: 0.1mM)	NP40-soluble protein abundance (concentration: 0.5mM)
M0R0F2 and related entries (UniProt Q8N594)	1.08 ± 0.068	1.06 ± 0.095
UniProt O43760 and related entries	0.908 ± 0.079	0.822 ± 0.15
UniProt O00471 and related entries	1 ± 0.028	1.01 ± 0.036
UniProt O60331 and related entries	1.06 ± 0.085	1.01 ± 0.023
M0R0C6 and related entries (UniProt Q92945)	0.966 ± 0.029	0.945 ± 0.012
TIMM8A (UniProt O60220)	0.91 ± 0.1	0.937 ± 0.082
ANKRD28 (UniProt O15084)	0.983 ± 0.041	1.01 ± 0.034
IGF2BP3 (UniProt O00425)	1 ± 0.051	1.03 ± 0.054
IFIT3 (UniProt O14879)	0.862 ± 0.1	0.896 ± 0.12
BACH1 (UniProt O14867)	0.966 ± 0.029	0.938 ± 0.024
NDC80 (UniProt O14777)	0.946 ± 0.06	0.936 ± 0.11
WASL (UniProt O00401)	1.02 ± 0.089	0.936 ± 0.069
UniProt O15530 and related entries	1.07 ± 0.013	1.03 ± 0.028
UniProt O15371 and related entries	0.999 ± 0.063	1 ± 0.052
UniProt O43166-2|O43166-3|O43166	1.03 ± 0.059	1.0394 ± 0.00088
LANCL1 (UniProt O43813)	1.01 ± 0.069	1.01 ± 0.028
GNPAT (UniProt O15228)	1.04 ± 0.091	1.03 ± 0.08
UniProt O00716-2	0.932 ± 0.047	1.048 ± 0.0075
M0R0P8 and related entries (UniProt Q13459)	1.03 ± 0.035	1.06 ± 0.075
C2CD2L (UniProt O14523)	1.03 ± 0.094	1.049 ± 0.0027

Target	NP40-soluble protein abundance (concentration: 0.1mM)	NP40-soluble protein abundance (concentration: 0.5mM)
UniProt O00231 and related entries	0.998 ± 0.051	0.965 ± 0.023
UniProt O43504	0.924 ± 0.099	0.918 ± 0.13
UniProt O43439-5|O43439 and related entries	0.978 ± 0.025	0.978 ± 0.074
UniProt O14920 and related entries	1.02 ± 0.034	1 ± 0.038
MAST3 (UniProt O60307)	1.28 ± 0.072	1.28 ± 0.15
CLGN (UniProt O14967)	1.03 ± 0.069	1.07 ± 0.055
NPC1 (UniProt O15118)	0.997 ± 0.043	0.952 ± 0.067
UniProt O14757	1.01 ± 0.11	1.01 ± 0.058
TOR1A (UniProt O14656)	1 ± 0.048	1.03 ± 0.048
PPM1G (UniProt O15355)	0.974 ± 0.039	0.976 ± 0.024
UniProt O43704	0.967 ± 0.026	0.967 ± 0.027
M0R2B7 and related entries (UniProt P28340)	1.05 ± 0.055	1.01 ± 0.037
PFDN6 (UniProt O15212)	0.923 ± 0.038	0.895 ± 0.046
UniProt O60232	0.919 ± 0.018	0.896 ± 0.047
OIP5 (UniProt O43482)	0.927 ± 0.17	0.844 ± 0.062
HTATSF1 (UniProt O43719)	0.972 ± 0.036	1 ± 0.081
UniProt O43561-3|O43561 and related entries	0.887 ± 0.1	0.801 ± 0.12
PRPSAP2 (UniProt O60256)	1.02 ± 0.04	1.05 ± 0.019
SH3BP5 (UniProt O60239)	0.995 ± 0.031	0.986 ± 0.049
IPO8 (UniProt O15397)	1.02 ± 0.042	1.036 ± 0.0044

Some values from the list.
HTATSF1 (UniProt O43719) – NP40-soluble protein abundance (concentration: 0.5mM): 1 ± 0.081
CLGN (UniProt O14967) – NP40-soluble protein abundance (concentration: 0.5mM): 1.07 ± 0.055
IPO8 (UniProt O15397) – NP40-soluble protein abundance (concentration: 0.5mM): 1.036 ± 0.0044

Carrying on.

Target	NP40-soluble protein abundance (concentration: 0.1mM)	NP40-soluble protein abundance (concentration: 0.5mM)
UniProt O43310 and related entries	1.02 ± 0.13	1.01 ± 0.046
SLC9A3R1 (UniProt O14745)	0.945 ± 0.014	0.953 ± 0.011
HGS (UniProt O14964)	0.994 ± 0.049	0.982 ± 0.031
PPIH (UniProt O43447)	1.01 ± 0.016	0.994 ± 0.019
AQR (UniProt O60306)	1.08 ± 0.073	1.07 ± 0.055
SCAMP2 (UniProt O15127)	0.982 ± 0.065	0.969 ± 0.051
BET1 (UniProt O15155)	0.975 ± 0.052	1.02 ± 0.015
UniProt O43903	0.9808 ± 0.0029	0.959 ± 0.032
UniProt O14733 and related entries	1.08 ± 0.036	1.12 ± 0.024
KPNA4 (UniProt O00629)	1.03 ± 0.047	1.07 ± 0.04
UniProt O00487	1.01 ± 0.064	0.976 ± 0.039
SLC33A1 (UniProt O00400)	1.07 ± 0.14	1.04 ± 0.11
UniProt O43852 and related entries	0.969 ± 0.017	0.974 ± 0.03
GMFG (UniProt O60234)	1.04 ± 0.051	1 ± 0.08
UniProt O14732 and related entries	1.0367 ± 0.00036	1.04 ± 0.042
UniProt O15085 and related entries	0.895 ± 0.12	0.891 ± 0.13
STRN (UniProt O43815)	1.01 ± 0.043	0.998 ± 0.051
KRIT1 (UniProt O00522)	1.03 ± 0.048	1.09 ± 0.042
M0R0N0 and related entries (UniProt O95182)	0.93 ± 0.1	0.897 ± 0.081
ZZEF1 (UniProt O43149)	1.03 ± 0.073	1.04 ± 0.085
